Test results published in patent US7501281B2, “Compositions, methods and kits related to thrombin, Notch signaling and stamatogenesis and growth of stem cells” (Maine Medical Center Research Institute, priority 2003, dated 2009).
Some results were stated once for a whole list of compounds, not compound by compound.

Tested on: clonal cortical neurospheres
Experiment: Cortical neurosphere model, secondary sphere formation
Type: cell-based, murine
Conditions: for change in secondary stem cell generation: over the control
From the text: The E14 prefrontal ventricular zone was dissected and plated at a clonal neurosphere-forming density in the presence of either sJ1, sDl1, thrombin, TRAP or no supplementation. After 2 weeks, the clones were dissociated to single cells and secondary spheres were generated using standard media with no supplementation (Reynolds et al., 1992, J. Neurosci. 12:4565-4574).
Secondary spheres (SP) are formed from the dissociation of founder (F) spheres. The data presented are the number of colonies (mean±SD of three experiments). (*=p≦0.05).

Thrombin
total cell numbers of primary spheres over the control: less than 2 fold | change in secondary stem cell generation: exceeded 5 fold

sJ1: Soluble Jagged1, amino acid residues from about 1 to 1067 (SEQ ID NO:3) of full-length Jagged1
total cell numbers of primary spheres over the control: less than 2 fold | change in secondary stem cell generation: exceeded 5 fold
